PubChem BioAssay AID504786 | Drosophila RNAi Screening Center | 2011
In all, the deposit lists about 21,000 reagents; this is a random part of those with a known target gene and a result. 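Primary screen; positive scores mean lost reporter signal, so the sign may be inverted from the usual convention.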 Reagents against one gene are numbered here. Names joined by + are all predicted targets of the reagent.

Screen: 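Positive regulators of HIF-driven reporter output in Drosophila cells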 (primary screen)
Cell system: Drosophila S2 cells with a stable HIF luciferase reporter
Reagent: long dsRNA against Drosophila genes, about 0.2 µg dsRNA per well of a 384-well plate
Duration: three days of knock-down, then 20 h of DFO before reading
Conditions: desferrioxamine (DFO) at 100 µM, an iron chelator that mimics hypoxia, for 20 h
Read-out: 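Firefly luciferase driven by the mouse ldh-a hypoxia-response element, measured after 20 h of 100 µM DFO; z-scores per plate, higher means more signal lost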
Reading the numbers: z-score: higher = stronger loss of HIF reporter signal

Target gene | dsRNA no. | z-score, replicate 1 | z-score, replicate 2
CG13587 | 1 | -0.2 | -0.4
Sema5c | 1 | -0.2 | -0.4
Rpn10 | 1 | 0.3 | 0.6
Scox | 1 | 2.8 | 2.2
Cnep1r2 | 1 | -0.2 | -0.5
Ir94a | 1 | -0.4 | 0.3
CG13526 | 1 | -0.4 | -0.6
Hmgs | 1 | -0.3 | 0.3
CG11069 | 1 | -0.2 | 0.1
Gfat1 | 1 | -0.1 | -0.1
CG5676 | 1 | -0.2 | -0.2
Cyp6t2Psi | 1 | 0.9 | 0
CG14820 | 1 | 1.6 | -0.4
CG2861 | 1 | -0.3 | -0.5
CG11145 | 1 | -0.2 | -0.6
L2HGDH | 1 | -0.3 | -0.5
CG32582 (retired record) | 1 | -0.4 | -0.1
Traf4 | 1 | 0.2 | 0.4
Traf4 | 2 | -0.3 | -0.4
CG9522 | 1 | -0.4 | -0.2
Dp1 | 1 | -0.3 | -0.4
smash | 1 | -0.2 | 0
smash | 2 | -0.3 | 0
CG11300 | 1 | -0.1 | 0.1
CG32625 | 1 | -0.1 | 0
Karl | 1 | -0.3 | -0.6
CG3434 | 1 | -0.3 | -0.4
stol | 1 | 7.4 | -0.6
CG10184 | 1 | -0.3 | -0.3
Cdc45 | 1 | 1.6 | 1.8
Cdc45 | 2 | -0.3 | -0.4
mr | 1 | -0.3 | -0.3
CG13471 | 1 | 0.2 | 0.5
Brr2 | 1 | 5.6 | 4.1
Oseg4 | 1 | -0.1 | -0.1
ZnT41F | 1 | -0.2 | 0
Mal-A7 | 1 | -0.2 | -0.2
CG17672 | 1 | 2.2 | 2.4
CG17672 | 2 | -0.1 | -0.2
anne | 1 | 7.2 | 5.7
RpS18 | 1 | 7.8 | 5.1
Ank | 1 | -0.2 | -0.3
thoc5 | 1 | -0.2 | -0.2
CG43127 | 1 | -0.4 | -0.8
CG2608 | 1 | 0 | 0.3
dve | 1 | -0.1 | -0.1
Gr21a | 1 | 0.1 | 0.3
CG5181 | 1 | -0.3 | -0.5
CSN3 | 1 | 3.4 | 2
Hsp70Aa + Hsp70Bb + Hsp70Ba + 3 more | 1 | 1.8 | 2.9
CG31788 | 1 | -0.4 | 0
CG10459 | 1 | -0.3 | -0.3
Sems | 1 | -0.3 | -0.4
Cyp4g15 | 1 | -0.1 | 0
Takl2 | 1 | -0.3 | -0.3
CG1927 | 1 | -0.3 | -0.6

A portion of the results above, for reference:
Target gene | dsRNA no. | z-score, replicate 1 | z-score, replicate 2
Traf4 | 2 | -0.3 | -0.4
CG9522 | 1 | -0.4 | -0.2
Dp1 | 1 | -0.3 | -0.4
smash | 1 | -0.2 | 0
